Results deposited as PubChem BioAssay AID1259308 (NCATS, 2017)

Aim: 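Genes whose loss raises luciferase production in HEK293 cells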 (primary screen)
Cell system: human HEK293 embryonic kidney cells stably expressing firefly luciferase (HEK-CMV-Luc2-Hygro)
Knock-down reagent: single siRNA against human genes, 0.8 pmol siRNA per well
Timing: 72 h
Measured: 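Reporter luminescence and viable-cell signal on separate replicate plates, given as percent of non-targeting control and median/MAD z-scores, plus per-cell luciferase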
Direction: total luciferase, z-score and total luciferase, % of control: higher = more reporter protein produced
Call rule: 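Active when the median/MAD z-score for overall luciferase is greater than 3; a gene was taken forward for validation with new siRNAs if at least two of its three siRNAs passed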
Meaning of the calls: active = raised luciferase; inactive = no rise
The deposit covers about 59,000 reagents; below is a random part of them. About 1,510 of all reagents (2.6%) were called active. 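Calls use total luciferase alone and ignore viability, so some active siRNAs may act by altering cell number.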 Reagents against one gene are numbered here. Further read-outs or replicates are left out here.

P2RY8 #1 gave total luciferase, z-score -0.129; total luciferase, % of control 79.3; inactive.
Against P2RY8 #2, the values are total luciferase, z-score -1.66; total luciferase, % of control 48.8; inactive.
After knock-down of P2RY8 #3, the screen gave total luciferase, z-score -0.394; total luciferase, % of control 74.1; inactive.
TMPRSS4 #1 scored total luciferase, z-score -0.272; total luciferase, % of control 76.5; inactive.
For TMPRSS4 #2, the entry reads total luciferase, z-score -0.868; total luciferase, % of control 64.6; inactive.
Against TMPRSS4 #3, the entry reads total luciferase, z-score -0.318; total luciferase, % of control 75.6; inactive.
Against AMDHD1 #1, the values are total luciferase, z-score 0.698; total luciferase, % of control 95.8; inactive.
For AMDHD1 #2 the deposit lists total luciferase, z-score -0.0879; total luciferase, % of control 80.1; inactive.
Against AMDHD1 #3 the deposit lists total luciferase, z-score 0.795; total luciferase, % of control 97.7; inactive.

2 entries already listed, sorted by “total luciferase, % of control”, low to high.
P2RY8 #2 → total luciferase, z-score: -1.66; total luciferase, % of control: 48.8; Outcome: inactive
P2RY8 #3 → total luciferase, z-score: -0.394; total luciferase, % of control: 74.1; Outcome: inactive

Further reagents follow.
Depletion of PLEKHO2 #1 came out at: total luciferase, z-score 0.971; total luciferase, % of control 101; inactive.
PLEKHO2 #2 gave total luciferase, z-score 1.02; total luciferase, % of control 102; inactive.
Depletion of PLEKHO2 #3 came out at: total luciferase, z-score 0.442; total luciferase, % of control 90.7; inactive.
Against SPRR1B #1, the values are total luciferase, z-score 0.0426; total luciferase, % of control 82.7; inactive.
For SPRR1B #2, the values are total luciferase, z-score 1.26; total luciferase, % of control 107; inactive.
With knock-down of SPRR1B #3, the screen gave total luciferase, z-score 4.28; total luciferase, % of control 167; active.
With knock-down of RPL6P1 #1, the screen gave total luciferase, z-score 0.56; total luciferase, % of control 93; inactive.
For RPL6P1 #2 the deposit lists total luciferase, z-score 0.959; total luciferase, % of control 101; inactive.
Silencing of RPL6P1 #3 resulted in: total luciferase, z-score 0.611; total luciferase, % of control 94; inactive.
Knock-down of CHD5 #1 resulted in: total luciferase, z-score 2.29; total luciferase, % of control 127; inactive.
CHD5 #2 scored total luciferase, z-score -0.981; total luciferase, % of control 62.4; inactive.
With knock-down of CHD5 #3, the record shows total luciferase, z-score 0.361; total luciferase, % of control 89.1; inactive.
